Experimental data published in PubChem BioAssay AID602254 (Broad Institute, 2012).
Hit rate of the full screen: of about 1,000 compounds, fewer than 10 were called active.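 The calls were made as follows: active = fitted half-maximal concentration no higher than twice the top valid tested dose, with signal falling; inconclusive = flat curve with 30 to 70% inhibition, or poor fit; inactive = the rest.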 Some of the results follow. Results with a measured potency or affinity are listed apart.

Molecular target: Golgi-associated PDZ and coiled-coil motif-containing protein (Homo sapiens) (UniProt Q9HD26)
Experiment: blockers of CAL PDZ–TMR peptide complex – biochemical, fluorescence polarization, untagged CAL PDZ, cherry-pick, set 2, dose response (AID 602254);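 also: 0% = DMSO neutral control and -100% = unlabeled peptide PRC23 positive control; more negative means stronger blocking of peptide binding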
Conditions: Purified CAL PDZ; at 60 µM (top of the series)

Activity change, negative = inhibition, inactive:
COC(=O)c1ccccc1NC(=O)C1CCN(C(=O)c2cc(OC)cc(OC)c2)CC1 -2.8%
COc1ccc(CCNS(=O)(=O)c2ccccc2)cc1OC -8.76%
CCCN(CC(=O)Nc1ccccc1OC)C(=O)c1ccccn1 0.9%
CCCN(CC(=O)Nc1cc(C)on1)CC(=O)Nc1ccc(F)c(F)c1F -0.264%
O=C(NCCc1ccccc1F)c1ccc2c(c1)OCCO2 2.65%
O=C(CCN1C(=O)/C(=C\c2ccccc2Cl)SC1=S)Nc1cccnc1 -0.105%
O=C(c1ccccc1)N1CCN(c2ccccc2)CC1 -1.91%
Cc1c(Cl)cccc1NC(=S)NCc1ccc2c(c1)OCO2 -0.54%
COc1ccc2[nH]cc(CCNC(=O)Cc3ccc(F)cc3)c2c1 -0.01%
COc1ccccc1CN(C)S(=O)(=O)c1cccs1 1.57%
CC(=O)c1cccc(NS(=O)(=O)c2ccc(NC(=O)N3CCCCC3)cc2)c1 0.347%
COc1ccc(-c2cc3c(=O)n(CC(=O)NCc4ccc(F)cc4)ncn3n2)cc1 4.45%
COc1ccc(C(C)(C)C)cc1NC(=O)COC(=O)CN1C(=O)NC2(CCCCC2C)C1=O (centres undefined) 2.45%
O=S(=O)(c1ccccc1)N1CCN(CCc2ccccc2)CC1 -1.5%
O=C(NCc1cccs1)C1CCCN1S(=O)(=O)c1ccccc1F (centres undefined) 0.958%
Cc1cccc(C(=O)Nc2ccn(C)n2)c1 0.841%
CCOc1ccccc1N1C(=O)CN(Cc2ccc(OC)c(OC)c2)C1=S -0.417%
O=C(O)Cc1sc(-c2ccc(Cl)cc2)nc1-c1ccccc1 3.43%
Cc1cc(C(=O)NNC(=O)c2ccc(C(F)(F)F)cc2)no1 0.569%
COc1ccc(S(=O)(=O)NCCc2ccncc2)cc1 -1.81%
NC(=O)NCC(=O)N1CCC(C(O)(c2ccccc2)c2ccccc2)CC1 0.872%
O=S1(=O)c2c(F)cccc2OC(COc2ccccc2)CN1CCc1ccc(F)cc1 (centres undefined) 0.686%
CCc1ccc(C(=O)NNC(=O)c2c(CC)noc2C)cc1 -3.88%
Cc1ccc([C@@H]2CC=C(C(=O)O)[C@H](c3ccccc3)N2S(=O)(=O)c2ccc(C)cc2)cc1 1.02%
CN(C)S(=O)(=O)c1ccc(C(=O)NC2CCCc3ccccc32)cc1 (centres undefined) -0.666%
CCC(=O)c1ccc(N2CCCCC2)c(F)c1 0.055%
COc1ccc(CN2CCC(Oc3ccc(C(=O)N4CCCC4)cc3)CC2)c(F)c1 -0.736%
CCN(C(=O)c1cccc(NC(=O)c2ccccc2)c1)C1CCCCC1 2.71%
COc1ccccc1CN1CCNC(=O)C1CC(=O)NCc1c(C)n[nH]c1C (centres undefined) -2.98%
CC1CCN(C(=O)COC(=O)c2ccc(N3CCCC3=O)cc2)CC1 -1.03%
Cc1ccc2c(c1)N(CC(=O)NCCCN1CCN(C)CC1)C(=O)CO2 0.41%
C=CCOc1cccc(C(=O)N2CCCC(CCC(=O)NCc3ccccc3F)C2)c1 (centres undefined) 6.57%
COc1ccc(CN(C)C(=O)CNC(=O)CNC(=O)c2ccc(Cl)cc2Cl)cc1F 0.378%
COc1ccc(NC(=O)Nc2nnc(C(C)(C)C)s2)cc1 -1.28%
O=C(CN1CCN(c2ccc(O)cc2)CC1)N1CCc2ccccc21 -2%
CCOc1ccccc1NC(=O)C1CCN(C(=O)Cc2ccccc2)CC1 6.1%
Cc1ccccc1NC(=O)c1ccc(NC(=O)C2CCCO2)cc1 (centres undefined) -2.35%
O=C(C1CC1)N1CCc2cc(S(=O)(=O)N3CCOCC3)ccc21 2.05%
O=C(O)c1ccc(C(=O)Nc2cccc(NC(=O)C3CCCO3)c2)cc1 (centres undefined) -0.872%
Cc1ccccc1CNC(=O)c1ccc2ccccc2n1 0.33%
N#Cc1ccc(COC(=O)c2cnc(Cl)c(Cl)c2)cc1 -6.12%
CC(O)CNCCNCc1cccs1 (centres undefined) 0.688%
CNC(=O)c1cccc(NC(=O)CCCNC(=O)c2ccc(Cl)cc2)c1 1.04%
Cc1cc(CN(C)C(=O)C2CCC(=O)N(CCc3cccc(F)c3)C2)on1 (centres undefined) -0.419%
O=C(Cc1ncon1)Nc1ccc(F)c(F)c1F -0.699%
O=C(Cn1cccc1C(=O)c1ccccc1)NCc1ccccc1Cl -3.87%
CCOC(=O)c1ccc(-n2c(C)nc3c(cnn3-c3ccccc3Cl)c2=O)cc1 -0.176%
CCc1ccccc1N(CC(=O)NCCc1ccccc1)C(=O)CCC(=O)Nc1ccccn1 -1.54%
CCCCCC(=O)NC(=S)Nc1ccc2oc(=O)ccc2c1 -2.64%
CCOCCCn1c(=S)[nH]c2cc(C(=O)NC3CCCC(C)C3C)ccc2c1=O (centres undefined) -3.75%
CC(C)(C)CN1CCNC(=O)C1CC(=O)NCCN1CCCc2ccccc21 (centres undefined) -0.23%
CCC(C)(C(=O)NC1CCCC1)N(C(=O)CC1NC(=O)NC1=O)c1ccc(C)cc1 (centres undefined) 2.35%
Cc1cc(SCc2cccc(Cl)c2)nc(=O)[nH]1 2.61%
COC(=O)c1ccc(NC(=S)Nc2cccc(C)n2)cc1 -2.33%
COc1ccccc1CN(C)C(=O)c1cc(-c2cc(OC)c(OC)c(OC)c2)nc2ccccc12 6.42%
COc1ccc(-c2csc(=NCCO)n2-c2ccccc2)cc1 -3.99%
Cc1ccc(C(=O)Nc2cccc(C(=O)N/N=C/c3ccc(F)cc3)c2)cc1 -1.78%
CC(C)N(C(=O)COC(=O)c1cccc(N(C)C)c1)c1ccccc1 3.1%
O=C(CNC(=O)CNC(=O)c1ccc(Cl)cc1Cl)NCc1cccc(Cl)c1 -0.331%
COc1ccc(-c2ncc(CN3CCN(CCC(C)C)C(CCO)C3)cn2)cc1 (centres undefined) -2.76%
CCOc1ccc(S(=O)(=O)N2Cc3ccccc3CC2C(=O)O)cc1 (centres undefined) -0.217%
COc1ccc(C2NCCc3cc(OC)c(OC)cc32)cc1OC (centres undefined) 1.91%
O=C(Nc1ccnn1C1CCN(CC2CC=CCC2)CC1)c1ccccc1Cl (centres undefined) -1.42%
Cc1cc(C)nc(NCC(O)CNc2ccccc2C)n1 (centres undefined) 2.94%
CCCCS(=O)(=O)N1CCCC(C(=O)Oc2ccccc2)C1 (centres undefined) -3.58%
Cc1ccc2nc(N3CCN(Cc4nnnn4C4CCCC4)CC3)c(C#N)cc2c1 2.55%
CS(=O)(=O)N(CC(=O)Nc1ccc(Cl)c(Cl)c1)C1CCCCC1 -1.08%
NC(=O)C1CCCN(C(=O)CCCNC(=O)c2ccc(Cl)cc2)C1 (centres undefined) 0.745%
CCOC(=O)C1(Cc2ccc(OC)cc2)CCN(C(=O)CCc2cnccn2)CC1 1.47%
Cc1cc(-c2n[nH]c(=S)n2-c2ccccc2C)cs1 0.244%
Cc1n[nH]c(C)c1CCN(C)Cc1cn(C)nc1-c1ccc2c(c1)OCCO2 0.263%
Cc1cc(C)c(S(=O)(=O)NCc2ccc3c(c2)OCO3)c(C)c1 -0.301%
O=C1CCCN1CC(O)CS(=O)(=O)Cc1ccccc1 (centres undefined) -3.87%
CN(C)S(=O)(=O)N1CCN(S(=O)(=O)c2ccccc2)CC1 0.757%
O=C(COc1ccc(Cl)cc1)Nc1cc(NC(=O)COc2ccc(Cl)cc2)cc(C(=O)O)c1 9.23%
CCOC(=O)c1ccc(S(=O)(=O)NCC(C)(C)N2CCOCC2)cc1 0.845%
Cc1ccc(C(=O)CCC(=O)NC2CCCC(C)C2C)cc1 (centres undefined) 3.9%
CN1CCN(c2nc3c(c(=O)[nH]c(=O)n3C)n2Cc2ccccc2F)CC1 3.67%
Cc1ccsc1C(=O)NNC(=O)c1cccc(S(=O)(=O)N2CCCC2)c1 -2.83%
CCOC(=O)C1CCN(c2ccc(-c3cccs3)nn2)CC1 0.333%
CN(C(=O)c1ccno1)c1nnc(-c2cccnc2)s1 -1.54%
Cc1ccc(CNS(=O)(=O)c2c(C(=O)N3CCCCCC3)c(C)n(C)c2C)cc1 0.166%
Cc1ccc(-c2nc3ccccc3c(=O)o2)cc1 0.546%
Clc1ccc(-c2nsc(N3CCOCC3)n2)c(Cl)c1 2.72%
N#CCC(=O)Nc1nc(-c2ccc3c(c2)OCCO3)cs1 0.867%
CSCCC(NC(=O)COc1cccc2ccccc12)C(=O)O (centres undefined) -11.2%
CC(C)CC(=O)c1c[nH]c(C(=O)N2CCN(Cc3ccccc3)CC2)c1 0.08%
COc1cnc(-c2ccccn2)nc1N(C)C -0.111%
CC(C)(C)[C@H]1COC(=O)CCCC/C=C\C[C@H](CC(=O)N(CCO)Cc2ccccc2)C(=O)N1 -0.817%
CCN(CC)S(=O)(=O)c1ccc(NC(=S)NC(=O)CC(C)C)cc1 -1.3%
Cc1cc(C(=O)COC(=O)C2CCN(C(=O)c3ccc(Cl)cc3)CC2)c(C)n1CC1CCCO1 (centres undefined) 2.19%
Cc1ccccc1C(=O)c1cccn1CC(=O)NCCC1=CCCCC1 0.05%
CCOC(=O)C1CCCN(S(=O)(=O)c2ccc(Cl)nc2)C1 (centres undefined) -0.215%
Cc1c(C(=O)N2CCOCC2)c(S(=O)(=O)Nc2ccc(C(C)C)cc2)c(C)n1C -1.06%

4 compounds drawn at random from the list so far, as already listed:
Activity change, negative = inhibition, inactive:
O=C1CCCN1CC(O)CS(=O)(=O)Cc1ccccc1 (centres undefined) -3.87%
COc1ccc(CCNS(=O)(=O)c2ccccc2)cc1OC -8.76%
CCN(CC)S(=O)(=O)c1ccc(NC(=S)NC(=O)CC(C)C)cc1 -1.3%
CCc1ccc(C(=O)NNC(=O)c2c(CC)noc2C)cc1 -3.88%
